{"source": "PubChem BioAssay AID504467", "about": "(National Center for Advancing Translational Sciences (NCATS), 2011)", "note": "In all, about 330,000 compounds went through this assay and about 7,700 (2.3%) were called active. The inconclusive results got no clear call from the source; some entries with a clear call stand among them for comparison. Calls come from the whole dose curve; as a rule, active = well fitted inhibition curve with a large enough effect; inconclusive = small, poorly fitted or top-dose-only effect, or effect the other way; inactive = flat fitted curve, though single readings scatter. Where the call is inconclusive, the potency comes from a doubtful curve fit. % is set by controls: 0 for no effect and ±100 for the full control effect; potency is the fitted concentration of half-maximal effect."}
{"test": "qHTS screen for small molecules that inhibit ELG1-dependent DNA repair in human embryonic kidney (HEK293T) cells expressing luciferase-tagged ELG1; note: nearly all actives have a fitted effect of over 55% in size", "details": "HEK293T ELG1-luciferase reporter, luminescence, 16 h, DNA damage induced by 5-fluorouridine; activity change, negative = inhibition: at 46.1 µM (top of the series)", "summary_of_the_method": "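Quantitative HTS, concentration-response format. 2,000 cells/well co-treated with 5-fluorouridine and compound, 16 hr in 5% CO2 at 37 °C; ONE-Glo luminescence read after 30 min.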"}
{"smiles": "O=C(c1cccc(-c2ccccc2F)c1)N1CC[C@@H](N2CCC(O)CC2)[C@H](O)C1", "activity change, negative = inhibition": "inactive: 0.641%"}
{"smiles": "S=C(NCc1ccncc1)Nc1cc(Cl)cc(Cl)c1", "activity change, negative = inhibition": "inactive: 0%"}
{"smiles": "C[C@]12c3[nH]c4ccc(Cl)cc4c3CCN1C(=O)[C@@H](CC(=O)NCC13CC4CC(CC(C4)C1)C3)C[C@@H]2C(=O)N1CCOCC1", "Potency": "inconclusive: 20.6 µM [inhibitor, single point]"}
{"smiles": "CN(C)S(=O)(=O)c1ccc(N2CCCC2)c(C(=O)NNC(=O)c2ccc(Br)cc2)c1", "Potency": "inconclusive: 16.4 µM [inhibitor, partial curve]"}
{"smiles": "O=C(OCc1nnc(-c2ccccc2)o1)c1ccc2ccccc2n1", "Potency": "inconclusive: 22.4 µM [activator, single point]"}
{"smiles": "CC(=O)c1sc(NC(=O)CN2C(=O)C3CCCCC3C2=O)nc1-c1ccccc1", "note": "(stereo unspecified)", "Potency": "inconclusive: 1.12 µM [inhibitor, partial curve, poor fit]"}
{"smiles": "Cc1c(C)n(C)c2ccc(C(=O)NCCCN3CCN(C)CC3)cc12", "Potency": "inconclusive: 11.6 µM [activator, partial curve, poor fit]"}
{"smiles": "COc1ccc(C(=O)Nc2ccc3c(c2)C(=O)NC3=O)cc1", "Potency": "inconclusive: 29.1 µM [activator, single point]"}
{"smiles": "COC(=O)c1cc(S(=O)(=O)NCCN2CCOCC2)cn1C", "activity change, negative = inhibition": "inactive: 14%"}
{"smiles": "CCCC(=O)N1CCN(c2ccc(NC(=O)c3cccs3)cc2Cl)CC1", "Potency": "active: 7.3 µM"}
{"smiles": "O=C(N/N=C/c1ccncc1)c1cc2ccccc2cc1O", "activity change, negative = inhibition": "inactive: 20%"}
{"smiles": "Cc1nc2sc3c(c2c(=O)[nH]1)CCCC3", "activity change, negative = inhibition": "inactive: 6.6%"}
{"smiles": "O=S(=O)(Nc1ccc(O)c(Sc2nc3ccccc3s2)c1)c1ccc(F)cc1", "activity change, negative = inhibition": "inactive: -22.3%"}
{"smiles": "COc1ccc(-c2cn3cc([N+](=O)[O-])ccc3n2)cc1OC", "Potency": "inconclusive: 18.3 µM [activator, partial curve]"}
{"smiles": "C/C(=N/Oc1nc(C)cc(C)n1)c1ccc(F)cc1", "Potency": "inconclusive: 14.6 µM [activator, partial curve]"}
{"smiles": "CCOC(=O)c1[nH]c2ccc(F)cc2c1NC(=O)Nc1ccccc1OC", "Potency": "inconclusive: 4.11 µM [activator, full curve, poor fit]"}
{"smiles": "COc1ccc(/C=N/NC(=O)c2ccc(NC(C)=O)cc2)cc1COc1ccc(F)cc1F", "activity change, negative = inhibition": "inactive: 5.7%"}
{"smiles": "O=C(COC(=O)CNC(=O)c1ccccc1)NCCc1ccccc1", "activity change, negative = inhibition": "inactive: -9.62%"}
{"smiles": "CC(=O)N1c2ccc(S(=O)(=O)NCCC(=O)NCc3ccc(F)cc3)cc2CC1C", "note": "(stereo unspecified)", "Potency": "inconclusive: 11.6 µM [inhibitor, partial curve]"}
{"smiles": "Cc1cc2c3c([nH]c2cc1S(=O)(=O)N1CCC2(CC1)OCCO2)CCCC3=O", "Potency": "inconclusive: 11.6 µM [inhibitor, partial curve, poor fit]"}
{"smiles": "CCOc1ccc(NC(=O)COC(=O)c2ccc(S(=O)(=O)N3CCOCC3)cc2)cc1", "Potency": "inconclusive: 14.6 µM [activator, partial curve, poor fit]"}
{"smiles": "O=C1COc2ccc(C(=O)c3ccccc3C(=O)O)cc2N1", "activity change, negative = inhibition": "inactive: -6.1%"}
{"smiles": "CCOc1cc(/C=C/C(=O)c2ccc(OC)c(CN3CCOCC3)c2)cc(Br)c1O", "Potency": "active: 18.3 µM"}
{"smiles": "Cc1ccc(C(CC(=O)c2ccco2)SCCO)cc1", "note": "(stereo unspecified)", "Potency": "inconclusive: 20.6 µM [activator, single point]"}
{"smiles": "CC(C)C(=O)NN1c2ccccc2CCc2ccccc21", "Potency": "inconclusive: 0.103 µM [inhibitor, full curve, poor fit]"}
{"smiles": "O=C(COC(=O)C1CCN(S(=O)(=O)c2cc([N+](=O)[O-])ccc2Cl)CC1)Nc1ncc(Cl)cc1Cl", "activity change, negative = inhibition": "inactive: 22.3%"}
{"smiles": "CCN(CC)C(=O)[C@H]1C[C@H](CC(=O)NCCCOC)C(=O)N2CCc3c([nH]c4cc(CCC(=O)N(C)C)ccc34)[C@]12C", "activity change, negative = inhibition": "inactive: 13.7%"}
{"smiles": "O=C(CSc1nc2ccccc2c(=O)n1-c1ccc(F)cc1F)Nc1ccc(N2CCOCC2)cc1", "activity change, negative = inhibition": "inactive: -14.5%"}
{"smiles": "Cc1ccc(NC(=O)c2cc(N3C(=O)C=CC3=O)ccc2Cl)cc1C", "Potency": "inconclusive: 29.1 µM [activator, single point]"}
{"smiles": "C[C@H](CO)N1C[C@H](C)[C@@H](CN(C)C(=O)Nc2ccc3c(c2)OCO3)Oc2c(NS(=O)(=O)c3ccc(F)cc3)cccc2C1=O", "Potency": "inconclusive: 10.3 µM [activator, partial curve, poor fit]"}
{"smiles": "O=C(O)c1cc(NC(=O)c2ccco2)cc(NC(=O)c2ccco2)c1", "activity change, negative = inhibition": "inactive: 4.46%"}
{"smiles": "Cc1nn(-c2ccccc2)c2c1C(c1cccs1)C(C#N)=C(N)O2", "note": "(stereo unspecified)", "Potency": "inconclusive: 29.1 µM [activator, single point]"}
{"smiles": "COc1ccc(C2C(C#N)=C(N)N(c3cccnc3)C3=C2C(=O)CCC3)cc1Cn1cc([N+](=O)[O-])cn1", "note": "(stereo unspecified)", "activity change, negative = inhibition": "inactive: -16%"}
{"smiles": "O=C(CN1C(=O)c2ccccc2S1(=O)=O)N1CCN(Cc2ccc3c(c2)OCO3)CC1", "Potency": "inconclusive: 29.1 µM [inhibitor, single point]"}
{"smiles": "COc1ccc(C(=O)NC(=S)N2CCN(C)CC2)cc1Br", "activity change, negative = inhibition": "inactive: 3.31%"}
{"smiles": "Cc1ccc(NC(=O)CCS(=O)(=O)c2cc3c(cc2Cl)NC(=O)CO3)cc1", "activity change, negative = inhibition": "inactive: 4.77%"}
{"smiles": "O/N=C/c1cn(-c2ccc(Cl)cc2)nn1", "Potency": "inconclusive: 16.4 µM [activator, partial curve]"}
{"smiles": "O=C(Cn1cnc([N+](=O)[O-])n1)N/N=C/c1cc(Cl)ccc1O", "Potency": "inconclusive: 4.61 µM [inhibitor, full curve]"}
{"smiles": "Cc1cccc(C)c1NC(=O)COC(=O)CN1C(=O)C2CCCCC2C1=O", "note": "(stereo unspecified)", "activity change, negative = inhibition": "inactive: 3.63%"}
{"smiles": "Fc1ccc(Nc2nc(-c3ccncc3)nc3ccccc23)cc1F", "Potency": "active: 1.84 µM"}
{"smiles": "CCCCCCCCC(=O)NC(NC(=S)N1CCOCC1)C(Cl)(Cl)Cl", "note": "(stereo unspecified)", "Potency": "inconclusive: 25.9 µM [inhibitor, single point]"}
{"smiles": "O=C(O)CCn1c2ccccc2c2nc3ccccc3nc21", "Potency": "inconclusive: 20.6 µM [activator, partial curve]"}
{"smiles": "Cc1ccc(NC(=O)CSc2nnc(-c3cccs3)o2)cc1S(=O)(=O)N(C)C", "Potency": "inconclusive: 14.6 µM [activator, partial curve]"}
{"smiles": "CCOC(=O)c1[nH]c2ccc(OC)cc2c1NC(=O)C(C)N1CCSCC1", "note": "(stereo unspecified)", "Potency": "inconclusive: 29.1 µM [inhibitor, single point]"}
{"smiles": "CN1CCN(c2ccccc2NC(=O)c2ccc(OCc3ccccc3)cc2)CC1", "Potency": "inconclusive: 16.4 µM [inhibitor, single point]"}
{"smiles": "CCn1c2ccccc2c2c3ncc4cccn4c3ccc21", "Potency": "inconclusive: 23.1 µM [activator, partial curve]"}
{"smiles": "COc1ccc(S(=O)(=O)n2cccc2)c(OC)c1", "activity change, negative = inhibition": "inactive: -0.0498%"}
{"smiles": "Cc1cccc(NC(=O)COc2ccccc2)c1", "Potency": "inconclusive: 4.61 µM [activator, single point]"}
{"smiles": "COc1ccc(N2CCN(C(=O)COc3ccccc3)CC2)cc1", "activity change, negative = inhibition": "inactive: -5.95%"}
{"smiles": "CCOC(=O)C(NC(=O)c1ccccc1Cl)(Nc1ccc(C)c(C)c1)C(F)(F)F", "note": "(stereo unspecified)", "activity change, negative = inhibition": "inactive: -0.941%"}
{"smiles": "C[C@H](CO)N1C[C@H](C)[C@@H](CN(C)S(=O)(=O)c2cccs2)Oc2ccc(NC(=O)Cc3ccccc3)cc2C1=O", "Potency": "inconclusive: 29.1 µM [inhibitor, single point]"}
{"smiles": "Cc1cc(NCCCn2ccnc2)n2nc(C)c(-c3ccc(Cl)cc3)c2n1", "Potency": "inconclusive: 29.1 µM [inhibitor, single point]"}
{"smiles": "COc1ccc(/C=C2\\N=C3CCCCCN3C2=O)cc1", "Potency": "inconclusive: 25.9 µM [activator, single point]"}
{"smiles": "CC(C)CN(CCCNC(=O)CN1N=C(c2ccc(Cl)cc2)CCC1=O)CC(C)C", "activity change, negative = inhibition": "inactive: 0.628%"}
{"smiles": "COCC(C)NC(=O)c1cc(-c2ccc(O)cc2)on1", "note": "(stereo unspecified)", "Potency": "inconclusive: 20.6 µM [activator, partial curve]"}
{"smiles": "CCN1CCN(C(=O)C2CCCN(S(=O)(=O)c3cccc4nsnc34)C2)CC1", "note": "(stereo unspecified)", "Potency": "inconclusive: 13 µM [activator, partial curve]"}
{"smiles": "O=Cc1ccc(N2CCCCCC2)cc1", "Potency": "inconclusive: 16.4 µM [activator, single point]"}
{"smiles": "CC(C)OCCCNC(=O)c1cc(Sc2ccc(F)cc2)nc2ccccc12", "Potency": "inconclusive: 25.9 µM [inhibitor, partial curve]"}
{"smiles": "C=CCn1c(-c2cc3c(s2)CCC(CC)C3)n[nH]c1=S", "note": "(stereo unspecified)", "Potency": "inconclusive: 20.6 µM [activator, partial curve]"}
{"smiles": "O=C(CSc1cccc[n+]1[O-])Nc1ccccc1Oc1ccccc1", "activity change, negative = inhibition": "inactive: -11.3%"}
{"smiles": "COc1ccc(CNC(=O)c2cc(-c3cc(C)cc(C)c3O)n[nH]2)cc1", "Potency": "inconclusive: 23.1 µM [inhibitor, single point]"}
{"smiles": "Cc1ccc(-c2nc(C#N)c(NCCc3ccccn3)o2)cc1", "Potency": "inconclusive: 9.2 µM [activator, partial curve]"}
{"smiles": "Cc1cc(S(=O)(=O)N2CCCC2)ccc1OCC(=O)N1CCOCC1", "activity change, negative = inhibition": "inactive: 5.39%"}
{"smiles": "Cc1ccccc1OCC(=O)OCC(=O)NCc1ccccc1", "Potency": "inconclusive: 11.2 µM [inhibitor, partial curve]"}
{"smiles": "COc1ccc(S(=O)(=O)N2CCOCC2)cc1NC(=O)C1COc2ccccc2O1", "note": "(stereo unspecified)", "Potency": "active: 10.3 µM"}
{"smiles": "Cc1cc(C)c2c(CC(=O)N3CCCC3)coc2c1", "activity change, negative = inhibition": "inactive: 12.3%"}
{"smiles": "CC1CCCCC1NC(=O)C(C)N1C(=O)c2ccccc2C1=O", "note": "(stereo unspecified)", "activity change, negative = inhibition": "inactive: 8.52%"}
{"smiles": "N#C[C@@H]1[C@@H]2C(=O)N(c3ccc4c(c3)OCCO4)C(=O)[C@@H]2C2c3ccccc3C=CN21", "note": "(stereo partly specified)", "activity change, negative = inhibition": "inactive: 19.6%"}
{"smiles": "O=C(NC(Cc1c[nH]c2ccccc12)C(=O)Nc1ccc(F)cc1)c1cccs1", "note": "(stereo unspecified)", "Potency": "inconclusive: 32.6 µM [activator, partial curve, poor fit]"}
{"smiles": "Cc1c(C(=O)N2C[C@@H](C)O[C@@H](C)C2)oc2c(F)cccc12", "Potency": "inconclusive: 18.3 µM [activator, partial curve]"}
{"smiles": "O=C(Nc1nnc(-c2cccs2)o1)c1ccc(S(=O)(=O)N2CCOCC2)cc1", "Potency": "active: 20.6 µM"}
